Our source for the binding values is article PMC12661447, “Cyanophycinase is required for heterotrophy in cyanobacteria” (The Journal of Biological Chemistry, 2025).

Results are given in words; binding and its absence hold for the method and conditions named. In cells and extracts the contact can be indirect. Some entries that bind do so weakly or less than the wild type. Tags and fused reporters may be left off the sequences shown.

For this assay, the target named is T1, FLAG-tagged variant of ArgD (acetylornithine aminotransferase) (Synechocystis sp. PCC 6803) (UniProt P73133).
T1 sequence: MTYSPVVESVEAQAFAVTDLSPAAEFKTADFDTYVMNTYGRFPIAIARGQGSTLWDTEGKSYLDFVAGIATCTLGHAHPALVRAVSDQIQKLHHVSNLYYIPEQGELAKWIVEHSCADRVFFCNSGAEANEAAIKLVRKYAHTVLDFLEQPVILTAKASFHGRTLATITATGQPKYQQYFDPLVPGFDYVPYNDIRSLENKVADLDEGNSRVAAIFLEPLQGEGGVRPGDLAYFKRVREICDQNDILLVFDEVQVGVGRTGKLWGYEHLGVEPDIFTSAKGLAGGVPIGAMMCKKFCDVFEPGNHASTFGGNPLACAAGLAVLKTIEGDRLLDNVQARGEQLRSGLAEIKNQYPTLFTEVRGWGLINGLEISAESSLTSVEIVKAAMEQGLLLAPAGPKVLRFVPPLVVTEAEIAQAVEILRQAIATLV
The experiment in a line: co-IP; FLAG-affinity coimmunopurification of f.ArgD from soluble proteins of f.argD/ΔargD Synechocystis cells grown under PAT or LAH conditions; eluates on SDS-PAGE, blot probed with antibodies against CphB and the FLAG tag.

B1: cyanophycinase (CphB) (enzyme, UniProt P73832 1-271)
chain: MPLSSQPAILIIGGAEDKVHGREILQTFWSRSGGNDAIIGIIPSASREPLLIGERYQTIFSDMGVKELKVLDIRDRAQGDDSGYRLFVEQCTGIFMTGGDQLRLCGLLADTPLMDRIRQRVHNGEISLAGTSAGAAVMGHHMIAGGSSGEWPNRALVDMAVGLGIVPEIVVDQHFHNRNRMARLLSAISTHPELLGLGIDEDTCAMFERDGSVKVIGQGTVSFVDARDMSYTNAALVGANAPLSLHNLRLNILVHGEVYHQVKQRAFPRVT
In the case of B1, the binding result was “binds”.
